2 substances from patent US20090156489A1 can be followed below.

Sequences of proteins named here, by UniProt entry; tags and fusion partners are left off. A change or cut given only in a name is not applied to a line headed by its entry. A line that says so, or that is headed by a name, gives the form on record, which may keep a tag or linker. Residues count along the entry.
UniProt P14210, residues 32-728: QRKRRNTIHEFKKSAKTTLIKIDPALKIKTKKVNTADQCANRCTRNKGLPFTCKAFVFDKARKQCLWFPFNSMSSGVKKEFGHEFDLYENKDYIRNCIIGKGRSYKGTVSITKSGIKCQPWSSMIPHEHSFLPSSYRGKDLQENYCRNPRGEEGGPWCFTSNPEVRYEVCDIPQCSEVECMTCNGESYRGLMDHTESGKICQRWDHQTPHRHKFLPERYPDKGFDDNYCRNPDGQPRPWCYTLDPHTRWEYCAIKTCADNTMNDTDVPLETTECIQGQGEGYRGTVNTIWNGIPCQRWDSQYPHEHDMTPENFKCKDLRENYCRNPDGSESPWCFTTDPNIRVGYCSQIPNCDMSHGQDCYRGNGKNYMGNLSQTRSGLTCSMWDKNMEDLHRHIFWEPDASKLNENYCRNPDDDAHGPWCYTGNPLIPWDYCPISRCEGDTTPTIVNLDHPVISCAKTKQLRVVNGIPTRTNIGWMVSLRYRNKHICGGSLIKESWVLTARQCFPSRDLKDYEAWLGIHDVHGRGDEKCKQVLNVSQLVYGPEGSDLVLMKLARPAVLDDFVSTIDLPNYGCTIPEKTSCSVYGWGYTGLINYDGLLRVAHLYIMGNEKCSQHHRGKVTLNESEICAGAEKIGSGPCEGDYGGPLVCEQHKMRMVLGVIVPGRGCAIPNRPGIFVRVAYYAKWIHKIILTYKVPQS
UniProt P08581, residues 25-932: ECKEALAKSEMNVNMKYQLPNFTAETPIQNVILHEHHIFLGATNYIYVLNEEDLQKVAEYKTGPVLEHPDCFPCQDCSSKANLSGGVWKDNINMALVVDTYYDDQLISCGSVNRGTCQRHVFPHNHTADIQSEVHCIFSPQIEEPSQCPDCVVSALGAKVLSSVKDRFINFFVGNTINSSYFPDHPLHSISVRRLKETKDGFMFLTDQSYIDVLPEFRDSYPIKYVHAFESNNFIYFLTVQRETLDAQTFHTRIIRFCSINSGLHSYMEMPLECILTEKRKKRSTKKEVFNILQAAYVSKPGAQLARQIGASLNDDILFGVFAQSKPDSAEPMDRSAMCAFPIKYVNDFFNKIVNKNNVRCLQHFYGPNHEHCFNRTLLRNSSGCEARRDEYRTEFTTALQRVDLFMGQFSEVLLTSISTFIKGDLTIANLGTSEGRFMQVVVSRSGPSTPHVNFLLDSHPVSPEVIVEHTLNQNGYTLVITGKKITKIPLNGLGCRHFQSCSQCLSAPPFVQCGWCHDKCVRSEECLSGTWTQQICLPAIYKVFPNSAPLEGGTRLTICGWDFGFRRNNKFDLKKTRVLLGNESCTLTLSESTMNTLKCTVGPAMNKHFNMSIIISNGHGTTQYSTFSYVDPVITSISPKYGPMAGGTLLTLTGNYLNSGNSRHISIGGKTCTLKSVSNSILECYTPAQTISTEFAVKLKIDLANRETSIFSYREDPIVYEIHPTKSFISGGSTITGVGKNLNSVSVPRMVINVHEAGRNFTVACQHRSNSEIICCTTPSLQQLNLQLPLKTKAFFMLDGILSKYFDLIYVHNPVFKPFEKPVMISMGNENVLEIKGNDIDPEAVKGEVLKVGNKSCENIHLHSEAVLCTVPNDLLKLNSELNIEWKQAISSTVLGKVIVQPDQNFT
human Netrin-G1-Fc (Q9Y2I2, form named): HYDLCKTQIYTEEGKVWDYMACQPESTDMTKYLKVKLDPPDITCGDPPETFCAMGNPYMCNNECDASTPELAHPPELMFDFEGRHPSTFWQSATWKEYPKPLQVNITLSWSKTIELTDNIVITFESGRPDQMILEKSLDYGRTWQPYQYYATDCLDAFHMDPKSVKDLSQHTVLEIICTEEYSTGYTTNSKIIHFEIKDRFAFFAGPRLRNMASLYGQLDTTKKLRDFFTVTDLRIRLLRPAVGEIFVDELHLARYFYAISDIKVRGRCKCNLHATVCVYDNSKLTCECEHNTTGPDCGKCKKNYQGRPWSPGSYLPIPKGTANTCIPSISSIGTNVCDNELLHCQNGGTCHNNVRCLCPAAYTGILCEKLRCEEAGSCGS

For test [1], the target named is human HGF protein (human) (UniProt P14210). The test is described as follows: solution binding assay, protein A bead pull-down, blot.
Test [2] deals with T1, human NGL-1 expressed on COS7 cells (human) (UniProt Q9HCJ2).
T1 sequence: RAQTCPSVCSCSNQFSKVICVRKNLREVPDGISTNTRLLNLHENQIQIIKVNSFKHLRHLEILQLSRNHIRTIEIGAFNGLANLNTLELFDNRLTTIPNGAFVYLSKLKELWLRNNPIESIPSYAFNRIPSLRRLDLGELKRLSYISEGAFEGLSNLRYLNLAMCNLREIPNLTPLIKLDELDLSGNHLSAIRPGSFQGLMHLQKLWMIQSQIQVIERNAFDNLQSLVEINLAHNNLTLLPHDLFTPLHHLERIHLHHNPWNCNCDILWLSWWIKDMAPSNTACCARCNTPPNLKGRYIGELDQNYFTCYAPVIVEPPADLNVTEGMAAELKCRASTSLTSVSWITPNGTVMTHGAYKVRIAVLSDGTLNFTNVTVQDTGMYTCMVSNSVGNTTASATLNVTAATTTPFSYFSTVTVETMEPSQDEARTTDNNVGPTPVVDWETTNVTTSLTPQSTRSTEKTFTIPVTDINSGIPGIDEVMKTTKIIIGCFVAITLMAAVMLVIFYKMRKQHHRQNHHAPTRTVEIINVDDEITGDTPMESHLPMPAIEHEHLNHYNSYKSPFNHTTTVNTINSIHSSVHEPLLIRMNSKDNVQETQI
The test is described as follows: cell surface binding assay on transfected COS7 cells.

No constants are given. Whether binding was seen depends on the method and setting. For some assays here: Binding seen in cells or lysates may run through a third protein. Some binding calls cover weakened binding; strength is not graded here.

On to “recombinant human cMet-Fc fusion protein (R&D Systems) (from UniProt P08581 25-932)”, for which, in test [1], the binding result was “binds”.
With “human Netrin-G1-Fc (from UniProt Q9Y2I2 29-409) (Fc fusion)”, the binding entry in test [2] is given as “binds”.
